Assay [1] deals with T1, human CaSR with FLAG-tag (FLAG-hCaSR) (human) (UniProt P41180).
T1 sequence: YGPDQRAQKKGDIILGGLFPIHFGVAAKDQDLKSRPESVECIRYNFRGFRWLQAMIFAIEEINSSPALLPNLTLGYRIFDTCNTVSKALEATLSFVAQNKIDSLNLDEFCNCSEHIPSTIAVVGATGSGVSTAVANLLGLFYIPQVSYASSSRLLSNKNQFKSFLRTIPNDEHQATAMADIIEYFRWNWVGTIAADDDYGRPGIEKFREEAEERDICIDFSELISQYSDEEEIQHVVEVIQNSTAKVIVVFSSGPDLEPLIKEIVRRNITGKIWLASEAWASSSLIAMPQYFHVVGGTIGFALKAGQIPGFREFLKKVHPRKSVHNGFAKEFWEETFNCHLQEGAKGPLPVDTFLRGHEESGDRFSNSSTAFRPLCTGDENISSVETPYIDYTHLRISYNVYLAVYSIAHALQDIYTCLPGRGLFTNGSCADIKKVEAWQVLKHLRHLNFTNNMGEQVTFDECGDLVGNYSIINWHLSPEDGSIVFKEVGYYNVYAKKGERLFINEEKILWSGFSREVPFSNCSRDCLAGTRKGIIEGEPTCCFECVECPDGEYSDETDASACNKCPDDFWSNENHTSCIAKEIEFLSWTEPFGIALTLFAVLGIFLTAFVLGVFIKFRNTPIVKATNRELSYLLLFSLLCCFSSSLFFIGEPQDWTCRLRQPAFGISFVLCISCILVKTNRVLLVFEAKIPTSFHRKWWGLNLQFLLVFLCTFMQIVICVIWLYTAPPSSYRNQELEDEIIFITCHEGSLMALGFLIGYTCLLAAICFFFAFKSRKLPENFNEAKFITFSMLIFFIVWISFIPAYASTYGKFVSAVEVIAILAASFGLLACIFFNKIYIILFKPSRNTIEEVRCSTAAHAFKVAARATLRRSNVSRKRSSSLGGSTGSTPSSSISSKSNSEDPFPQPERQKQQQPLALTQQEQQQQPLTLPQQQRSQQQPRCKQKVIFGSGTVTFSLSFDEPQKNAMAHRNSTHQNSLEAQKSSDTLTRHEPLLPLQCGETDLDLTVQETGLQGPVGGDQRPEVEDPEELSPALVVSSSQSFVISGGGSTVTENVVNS
The assay is described as follows: affinity purification with mass spectrometry; anti-FLAG M2 on Protein G Dynabeads, 1.0 mg cleared lysate (1% Triton X-100, 150 mM NaCl, Tris pH 7.4) of HEK293 cells transfected with FLAG-hCaSR or empty pcDNA3.1, 10 h at 4 °C; cells serum-starved, then treated with 4 mM Ca2+ or 2 mM EGTA for 2 h; on-bead digestion, LC-MS/MS, triplicates; hits at least twofold over the negative control, P ≤ 0.05.

The target in assay [2] is T1, human CaSR with FLAG-tag (FLAG-hCaSR) (human). Nature of the assay: affinity purification with mass spectrometry; as a1, only the samples of cells treated with 2 mM EGTA for 2 h (extracellular Ca2+ chelated).
Assay [3] shares this target. Nature of the assay: affinity purification with mass spectrometry; anti-FLAG M2 on Protein G Dynabeads, 1.0 mg cleared lysate (1% Triton X-100, 150 mM NaCl, Tris pH 7.4) of HEK293 cells transfected with FLAG-hCaSR or empty pcDNA3.1, 10 h at 4 °C; cells serum-starved, then treated with 4 mM Ca2+ or 2 mM EGTA for 2 h; on-bead digestion, LC-MS/MS, triplicates; hits at least twofold over the negative control, P ≤ 0.05. The source holds these as a separate data set.

These are yes or no findings as the source states them, for the method shown. Binding seen in cells or lysates may run through a third protein. Here binding means that the protein was enriched with, or labelled near, the bait; the list need not be complete. For part of these data: No binding means not detected with the bait. Where a sequence is shown, tags or fusion partners need not be part of it.

“GNAI (Gαi) (human (endogenous in HEK293))”: the binding entry was “binds” in assay [1] and “no binding (only cells treated with 2 mM EGTA)” in assay [2].

B1: RPN1 (protein, UniProt P04843 24-607)
chain: ASSEAPPLINEDVKRTVDLSSHLAKVTAEVVLAHLGGGSTSRATSFLLALEPELEARLAHLGVQVKGEDEEENNLEVRETKIKGKSGRFFTVKLPVALDPGAKISVIVETVYTHVLHPYPTQITQSEKQFVVFEGNHYFYSPYPTKTQTMRVKLASRNVESYTKLGNPTRSEDLLDYGPFRDVPAYSQDTFKVHYENNSPFLTITSMTRVIEVSHWGNIAVEENVDLKHTGAVLKGPFSRYDYQRQPDSGISSIRSFKTILPAAAQDVYYRDEIGNVSTSHLLILDDSVEMEIRPRFPLFGGWKTHYIVGYNLPSYEYLYNLGDQYALKMRFVDHVFDEQVIDSLTVKIILPEGAKNIEIDSPYEISRAPDELHYTYLDTFGRPVIVAYKKNLVEQHIQDIVVHYTFNKVLMLQEPLLVVAAFYILFFTVIIYVRLDFSITKDPAAEARMKVACITEQVLTLVNKRIGLYRHFDETVNRYKQSRDISTLNSGKKSLETEHKALTSEIALLQSRLKTEGSDLCDRVSEMQKLDAQVKELVLKSAVEAERLVAGKLKKDTYIENEKLISGKRQELVTKIDHILDAL
Take B1: the binding result in assay [3] is given as “binds”.

B2: PTPN1 (protein, UniProt P18031 1-435)
chain: MEMEKEFEQIDKSGSWAAIYQDIRHEASDFPCRVAKLPKNKNRNRYRDVSPFDHSRIKLHQEDNDYINASLIKMEEAQRSYILTQGPLPNTCGHFWEMVWEQKSRGVVMLNRVMEKGSLKCAQYWPQKEEKEMIFEDTNLKLTLISEDIKSYYTVRQLELENLTTQETREILHFHYTTWPDFGVPESPASFLNFLFKVRESGSLSPEHGPVVVHCSAGIGRSGTFCLADTCLLLMDKRKDPSSVDIKKVLLEMRKFRMGLIQTADQLRFSYLAVIEGAKFIMGDSSVQDQWKELSHEDLEPPPEHIPPPPRPPKRILEPHNGKCREFFPNHQWVKEETQEDKDCPIKEEKGSPLNAAPYGIESMSQDTEVRSRVVGGSLRGAQAASPAKGEPSLPEKDEDHALSYWKPFLVNMCVATVLTAGAYLCYRFLFNSNT
Take B2: the binding entry in assay [3] was “binds”.

B3: GANAB (protein, UniProt Q14697 29-944)
chain: ITLAVDRSNFKTCEESSFCKRQRSIRPGLSPYRALLDSLQLGPDSLTVHLIHEVTKVLLVLELQGLQKNMTRFRIDELEPRRPRYRVPDVLVADPPIARLSVSGRDENSVELTMAEGPYKIILTARPFRLDLLEDRSLLLSVNARGLLEFEHQRAPRVSQGSKDPAEGDGAQPEETPRDGDKPEETQGKAEKDEPGAWEETFKTHSDSKPYGPMSVGLDFSLPGMEHVYGIPEHADNLRLKVTEGGEPYRLYNLDVFQYELYNPMALYGSVPVLLAHNPHRDLGIFWLNAAETWVDISSNTAGKTLFGKMMDYLQGSGETPQTDVRWMSETGIIDVFLLLGPSISDVFRQYASLTGTQALPPLFSLGYHQSRWNYRDEADVLEVDQGFDDHNLPCDVIWLDIEHADGKRYFTWDPSRFPQPRTMLERLASKRRKLVAIVDPHIKVDSGYRVHEELRNLGLYVKTRDGSDYEGWCWPGSAGYPDFTNPTMRAWWANMFSYDNYEGSAPNLFVWNDMNEPSVFNGPEVTMLKDAQHYGGWEHRDVHNIYGLYVHMATADGLRQRSGGMERPFVLARAFFAGSQRFGAVWTGDNTAEWDHLKISIPMCLSLGLVGLSFCGADVGGFFKNPEPELLVRWYQMGAYQPFFRAHAHLDTGRREPWLLPSQHNDIIRDALGQRYSLLPFWYTLLYQAHREGIPVMRPLWVQYPQDVTTFNIDDQYLLGDALLVHPVSDSGAHGVQVYLPGQGEVWYDIQSYQKHHGPQTLYLPVTLSSIPVFQRGGTIVPRWMRVRRSSECMKDDPITLFVALSPQGTAQGELFLDDGHTFNYQTRQEFLLRRFSFSGNTLVSSSADPEGHFETPIWIERVVIIGAGKPAAVVLQTKGSPESRLSFQHDPETSVLVLRKPGINVASDWSIHLR
As for B3, in assay [3], the binding entry is recorded as “binds”.

B4: TBL2 (protein, UniProt Q9Y4P3 1-447)
chain: MELSQMSELMGLSVLLGLLALMATAAVARGWLRAGEERSGRPACQKANGFPPDKSSGSKKQKQYQRIRKEKPQQHNFTHRLLAAALKSHSGNISCMDFSSNGKYLATCADDRTIRIWSTKDFLQREHRSMRANVELDHATLVRFSPDCRAFIVWLANGDTLRVFKMTKREDGGYTFTATPEDFPKKHKAPVIDIGIANTGKFIMTASSDTTVLIWSLKGQVLSTINTNQMNNTHAAVSPCGRFVASCGFTPDVKVWEVCFGKKGEFQEVVRAFELKGHSAAVHSFAFSNDSRRMASVSKDGTWKLWDTDVEYKKKQDPYLLKTGRFEEAAGAAPCRLALSPNAQVLALASGSSIHLYNTRRGEKEECFERVHGECIANLSFDITGRFLASCGDRAVRLFHNTPGHRAMVEEMQGHLKRASNESTRQRLQQQLTQAQETLKSLGALKK
As to B4, the binding entry in assay [3] is “binds”.

B5: GPALPP1 (protein, UniProt Q8IXQ4 1-340)
chain: MARDLIGPALPPGFKARGTAEDEERDPSPVAGPALPPNYKSSSSDSSDSDEDSSSLYEEGNQESEEDDSGPTARKQRKNQDDDDDDDDGFFGPALPPGFKKQDDSPPRPIIGPALPPGFIKSTQKSDKGRDDPGQQETDSSEDEDIIGPMPAKGPVNYNVTTEFEKRAQRMKEKLTKGDDDSSKPIVRESWMTELPPEMKDFGLGPRTFKRRADDTSGDRSIWTDTPADRERKAKETQEARKSSSKKDEEHILSGRDKRLAEQVSSYNESKRSESLMDIHHKKLKSKAAEDKNKPQERIPFDRDKDLKVNRFDEAQKKALIKKSRELNTRFSHGKGNMFL
Take B5: in assay [3], the binding result is listed as “binds”.

B6: PRDX1 (protein, UniProt Q06830 1-199)
chain: MSSGNAKIGHPAPNFKATAVMPDGQFKDISLSDYKGKYVVFFFYPLDFTFVCPTEIIAFSDRAEEFKKLNCQVIGASVDSHFCHLAWVNTPKKQGGLGPMNIPLVSDPKRTIAQDYGVLKADEGISFRGLFIIDDKGILRQITVNDLPVGRSVDETLRLVQAFQFTDKHGEVCPAGWKPGSDTIKPDVQKSKEYFSKQK
Consider B6, for which the binding result in assay [3] is “binds”.

B7: DDOST (protein, UniProt P39656 43-456)
chain: SGPRTLVLLDNLNVRETHSLFFRSLKDRGFELTFKTADDPSLSLIKYGEFLYDNLIIFSPSVEDFGGNINVETISAFIDGGGSVLVAASSDIGDPLRELGSECGIEFDEEKTAVIDHHNYDISDLGQHTLIVADTENLLKAPTIVGKSSLNPILFRGVGMVADPDNPLVLDILTGSSTSYSFFPDKPITQYPHAVGKNTLLIAGLQARNNARVIFSGSLDFFSDSFFNSAVQKAAPGSQRYSQTGNYELAVALSRWVFKEEGVLRVGPVSHHRVGETAPPNAYTVTDLVEYSIVIQQLSNGKWVPFDGDDIQLEFVRIDPFVRTFLKKKGGKYSVQFKLPDVYGVFQFKVDYNRLGYTHLYSSTQVSVRPLQHTQYERFIPSAYPYYASAFSMMLGLFIFSIVFLHMKEKEKSD
For the molecule B7, the binding entry in assay [3] is listed as “binds”.

For the origin of these results see article PMC8523568.
